Taken from: PubChem BioAssay AID493246 (Drosophila RNAi Screening Center, 2011)

Screen: 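Genes fly cells need to grow and stay alive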 (primary screen)
Cell system: Drosophila Kc and S2R+ cells
Reagents: long dsRNA against Drosophila genes
Measurement: 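Raw, unnormalised count of remaining cells in each well; per-plate z-scores of cell number underlie the calls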
Reading the numbers: Kc cell number and S2R+ cell number: higher = more cells remaining
Call rule: 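Active when the per-plate z-score of cell number is 3 or more in the direction of fewer cells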
The deposit covers about 21,000 reagents; shown is a random part of those with a known target gene and a result. In the full data, 429 (2%) were called active. 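Values are raw and not normalised between plates; calls rest on per-plate z-scores that were not deposited.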 Entries without a mark were called inactive. The numbers tell different reagents against one gene apart. A plus sign joins genes that one reagent is predicted to hit. Not given: the amount of reagent, the time to read-out.

The opening 6 entries as a preview:
| Gene | dsRNA no. | Kc cell number, rep 1 | Kc cell number, rep 2 | S2R+ cell number, rep 1 | S2R+ cell number, rep 2 |
| --- | --- | --- | --- | --- | --- |
| CG15873 | 1 | 1.44e6 | 1.54e6 | 1.23e6 | 1.33e6 |
| TBPH | 1 | 1.26e6 | 1.32e6 | 1.09e6 | 1.09e6 |
| Smg5 | 1 | 1.19e6 | 1.24e6 | 1.16e6 | 1.14e6 |
| CG14151 | 1 | 1.73e6 | 1.66e6 | 1.30e6 | 1.63e6 |
| Hsp67Bc | 1 | 1.49e6 | 1.58e6 | 1.24e6 | 1.22e6 |
| nst | 1 | 1.44e6 | 1.52e6 | 1.39e6 | 1.20e6 |

Results, from the first entry:
| Gene | dsRNA no. | Kc cell number, rep 1 | Kc cell number, rep 2 | S2R+ cell number, rep 1 | S2R+ cell number, rep 2 |
| --- | --- | --- | --- | --- | --- |
| CG15873 | 1 | 1.44e6 | 1.54e6 | 1.23e6 | 1.33e6 |
| TBPH | 1 | 1.26e6 | 1.32e6 | 1.09e6 | 1.09e6 |
| Smg5 | 1 | 1.19e6 | 1.24e6 | 1.16e6 | 1.14e6 |
| CG14151 | 1 | 1.73e6 | 1.66e6 | 1.30e6 | 1.63e6 |
| Hsp67Bc | 1 | 1.49e6 | 1.58e6 | 1.24e6 | 1.22e6 |
| nst | 1 | 1.44e6 | 1.52e6 | 1.39e6 | 1.20e6 |
| CG31606 | 1 | 1.41e6 | 1.48e6 | 9.61e5 | 1.07e6 |
| CG12531 | 1 | 1.49e6 | 1.52e6 | 1.05e6 | 1.16e6 |
| Pex23 | 1 | 1.39e6 | 1.47e6 | 1.26e6 | 1.27e6 |
| Pex23 | 2 | 1.53e6 | 1.58e6 | 1.25e6 | 1.39e6 |
| Vps33B | 1 | 5.07e5 | – | 8.15e5 | – |
| SPoCk | 1 | 1.58e6 | 1.89e6 | 1.20e6 | 1.29e6 |
| SPoCk | 2 | 1.73e6 | 1.87e6 | 1.24e6 | 1.44e6 |
| SPoCk | 3 | 1.52e6 | 1.63e6 | 1.21e6 | 1.29e6 |
| SPoCk | 4 | 1.41e6 | 1.50e6 | 1.23e6 | 1.33e6 |
| CG33282 | 1 | 1.53e6 | 1.46e6 | 1.16e6 | 1.30e6 |
| fw | 1 | 1.52e6 | 1.48e6 | 1.10e6 | 1.15e6 |
| CG4360 | 1 | 1.55e6 | 1.65e6 | 1.00e6 | 1.06e6 |
| lncRNA:CR32657 | 1 | 1.58e6 | 1.51e6 | 1.10e6 | 1.23e6 |
| Lip4 | 1 | 1.64e6 | 1.73e6 | 1.30e6 | 1.56e6 |
| CG12607 | 1 | 1.66e6 | 1.62e6 | 1.17e6 | 1.25e6 |
| CG15471 | 1 | 1.71e6 | 1.71e6 | 1.08e6 | 1.18e6 |
| Prosalpha1R + Prosalpha1 | 1 | 1.04e6 | 1.14e6 | 6.43e5 | 7.40e5 |
| unc | 1 | 1.85e6 | 1.85e6 | 1.20e6 | 1.36e6 |
| ATPsynO | 1 | 1.62e6 | 1.76e6 | 1.13e6 | 1.25e6 |
| CG32428 | 1 | 1.59e6 | 1.74e6 | 9.80e5 | 1.07e6 |
| CG32428 | 2 | 1.31e6 | 1.57e6 | 1.20e6 | 1.32e6 |
| CG4686 | 1 | 1.22e6 | 1.21e6 | 1.09e6 | 1.21e6 |
| eIF2D | 1 | 1.00e6 | 1.39e6 | 1.01e6 | 9.74e5 |
| unc79 | 1 | 1.52e6 | 1.64e6 | 1.13e6 | 1.19e6 |
| primo-2 + primo-1 | 1 | 1.24e6 | 1.34e6 | 1.22e6 | 1.34e6 |
| CG9664 | 1 | 1.33e6 | 1.35e6 | 8.58e5 | 1.02e6 |
| CG13771 | 1 | 1.50e6 | 1.39e6 | 1.12e6 | 1.21e6 |
| Mctp | 1 | 1.80e6 | 1.77e6 | 1.32e6 | 1.55e6 |
| CG12502 | 1 | 1.62e6 | 1.26e6 | 9.56e5 | 1.20e6 |
| Lipt2 | 1 | 1.31e6 | 1.32e6 | 1.08e6 | 1.15e6 |
| CG7239 | 1 | 7.55e5 | 1.13e6 | 2.27e5 | 3.00e5 |
| CG5623 | 1 | 1.50e6 | 1.58e6 | 1.14e6 | 1.27e6 |
| CanA-14F | 1 | 1.43e6 | 1.50e6 | 9.94e5 | 1.06e6 |
| eIF4E1 | 1 | 1.07e6 | 1.12e6 | 1.04e6 | 1.04e6 |
| mtd | 1 | 1.57e6 | 1.61e6 | 1.16e6 | 1.23e6 |
| mtd | 2 | 1.63e6 | 1.68e6 | 1.17e6 | 1.27e6 |
| mtd | 3 | 1.66e6 | 1.90e6 | 1.20e6 | 1.29e6 |
| CG8607 | 1 | 1.47e6 | 1.35e6 | 1.13e6 | 1.22e6 |
| imd | 1 | 1.57e6 | 1.63e6 | 1.25e6 | 1.24e6 |
| CG3104 | 1 | 1.50e6 | 1.61e6 | 1.05e6 | 1.04e6 |
| CG30287 | 1 | 5.36e5 | – | 8.89e5 | – |
| CG34289 | 1 | 1.24e6 | 1.52e6 | 1.09e6 | 1.12e6 |
| CG10543 | 1 | 1.72e6 | 1.83e6 | 1.20e6 | 3.44e5 |
| Cyp313a5 | 1 | 1.42e6 | 1.49e6 | 1.20e6 | 1.32e6 |
| CG14834 | 1 | 1.58e6 | 1.46e6 | 1.17e6 | 1.25e6 |
| Crz | 1 | 1.49e6 | 1.51e6 | 1.15e6 | 1.25e6 |
| CG9406 | 1 | 1.52e6 | 1.82e6 | 1.44e6 | 4.86e5 |
| CSN8 | 1 | 1.47e6 | 1.52e6 | 6.85e5 | 8.66e5 |
| CG9876 | 1 | 1.68e6 | 1.73e6 | 1.33e6 | 1.54e6 |
| atl | 1 | 1.56e6 | 1.49e6 | 1.08e6 | 1.15e6 |
| CG7275 | 1 | 1.42e6 | 1.50e6 | 1.19e6 | 1.27e6 |
| Aos1 | 1 | 1.56e6 | 1.45e6 | 1.19e6 | 1.29e6 |
| CG34187 (retired record) | 1 | 1.47e6 | 1.44e6 | 1.01e6 | 1.16e6 |
